From article PMC5963671, “Hes1 inhibitor isolated by target protein oriented natural products isolation (TPO-NAPI) of differentiation activators of neural stem cells† †Electronic supplementary information (ESI) available. See DOI: 10.1039/c5sc03540f” (Chemical Science, 2015)
These are yes or no findings as the source states them, for the method shown. Binding seen in cells or lysates may run through a third protein. Some results given as binding are weak or reduced against the parent protein; the word gives no strength. Sequences can lack the tags named with a protein.

Target: HA- and Flag-tagged Hes1 (UniProt Q04666)
Assay: co-IP; HA- and Flag-tagged Hes1 co-expressed in C3H10T1/2 cells; IP with HA antibody beads, blots with each antibody; cells untreated or treated with agalloside (2) at 5 and 10 μM

B1: HA- and Flag-tagged Hes1 (protein, UniProt Q04666 1-281)
chain: MPADIMEKNSSSPVAATPASVNTTPDKPKTASEHRKSSKPIMEKRRRARINESLSQLKTLILDALKKDSSRHSKLEKADILEMTVKHLRNLQRAQMTAALSTDPSVLGKYRAGFSECMNEVTRFLSTCEGVNTEVRTRLLGHLANCMTQINAMTYPGQAHPALQAPPPPPPSGPGGPQHAPFAPPPPLVPIPGGAAPPPGSAPCKLGSQAGEAAKVFGGFQVVPAPDGQFAFLIPNGAFAHSGPVIPVYTSNSGTSVGPNAVSPSSGSSLTADSMWRPWRN
Q: For B1, which binding is on record?
A: binds
